These are yes or no findings as the source states them, for the method shown. Binding calls can cover weak binding; strength is not graded here. For part of these data: Tags and fused reporters may be left off the sequences shown. For part of these data: Binding seen in cells or lysates may run through a third protein.
Tests used:
[1] = target: T1, GST-OsDMI3 (rice (Oryza sativa)) (UniProt Q6AVM3); assay: pull-down
T1 sequence: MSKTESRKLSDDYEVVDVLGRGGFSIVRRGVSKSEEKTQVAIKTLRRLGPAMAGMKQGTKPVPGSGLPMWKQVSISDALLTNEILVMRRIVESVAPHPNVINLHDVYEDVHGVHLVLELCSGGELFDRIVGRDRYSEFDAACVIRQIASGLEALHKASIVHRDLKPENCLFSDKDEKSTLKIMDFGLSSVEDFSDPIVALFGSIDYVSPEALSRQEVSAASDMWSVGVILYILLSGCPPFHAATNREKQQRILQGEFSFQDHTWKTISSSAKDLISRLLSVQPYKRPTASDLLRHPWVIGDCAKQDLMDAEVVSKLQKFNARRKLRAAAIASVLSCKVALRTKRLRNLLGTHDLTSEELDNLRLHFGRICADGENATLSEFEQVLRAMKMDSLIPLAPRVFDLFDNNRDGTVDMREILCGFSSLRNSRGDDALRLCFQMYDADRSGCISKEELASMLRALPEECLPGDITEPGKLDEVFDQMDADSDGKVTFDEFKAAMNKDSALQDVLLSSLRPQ

[2] = target: T2, OsDMI3 in pC1300-cLUC (LCI) (rice (Oryza sativa)) (UniProt Q6AVM3); assay: split reporter
T2 sequence: T1 sequence

[3] = target: T3, OsDMI3 (pGBKT7-OsDMI3) (rice (Oryza sativa)) (UniProt Q6AVM3); assay: two-hybrid
T3 sequence: T1 sequence

[4] = target: T4, EF hands domain (337 to 516 amino acids) of OsDMI3, Y2H construct (rice (Oryza sativa)) (UniProt Q6AVM3); assay: two-hybrid
T4 sequence: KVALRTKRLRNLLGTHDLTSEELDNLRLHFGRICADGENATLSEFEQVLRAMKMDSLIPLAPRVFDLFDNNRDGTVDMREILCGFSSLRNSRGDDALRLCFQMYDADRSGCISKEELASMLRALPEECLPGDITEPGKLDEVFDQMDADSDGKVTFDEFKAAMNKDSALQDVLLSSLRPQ

[5] = target: T5, EF hands domain (337 to 516 amino acids) of OsDMI3, LCI construct (rice (Oryza sativa)) (UniProt Q6AVM3); assay: split reporter
T5 sequence: T4 sequence

[6] = target: T6, OsDMI3 split-YFP fusion for BiFC (rice (Oryza sativa)) (UniProt Q6AVM3); assay: split reporter
T6 sequence: T1 sequence

[7] = target: T7, OsDMI3-Myc (rice (Oryza sativa)) (UniProt Q6AVM3); assay: co-IP
T7 sequence: T1 sequence

For “His-OsMKK1 (rice (Oryza sativa)) (enzyme)”, the binding [1] was “binds”.

In the case of “N-terminus domain (1 to 65 amino acids) of OsMKK1, LCI construct (rice (Oryza sativa)) (domain or fragment)”, the binding [2] is reported as “binds”.

“N-terminus domain (1 to 65 amino acids) of OsMKK1, Y2H construct (rice (Oryza sativa)) (domain or fragment)” was tested, and the binding [3] was “binds”.

With “OsMKK1 (pGADT7-OsMKK1) (rice (Oryza sativa)) (enzyme)” the binding [4] was “binds” and the binding [3] was “binds”.

In the case of “OsMKK1 in pC1300-nLUC (LCI) (rice (Oryza sativa)) (enzyme)”, the binding [5] is reported as “binds” and the binding [2] is reported as “binds”.

“OsMKK1 split-YFP fusion for BiFC (rice (Oryza sativa)) (enzyme)” was tested, and the binding [6] was “binds”.

In the case of “OsMKK1-Flag (rice (Oryza sativa)) (enzyme)”, the binding [7] is reported as “binds”.

“OsMKK1^T25A, LCI construct (rice (Oryza sativa)) (enzyme)” was tested, and the binding [2] was “binds”.

For “OsMKK1^T25A, Y2H construct (rice (Oryza sativa)) (enzyme)”, the binding [3] was “binds”.

In the case of “OsMKK1^T25D, LCI construct (rice (Oryza sativa)) (enzyme)”, the binding [2] is reported as “binds”.

With “OsMKK1^T25D, Y2H construct (rice (Oryza sativa)) (enzyme)” the binding [3] was “binds”.

For “OsMKK10-2, BiFC construct (rice (Oryza sativa)) (enzyme)”, the binding [6] was “no binding”.

With “OsMKK10-2, Y2H construct (rice (Oryza sativa)) (enzyme)” the binding [3] was “no binding”.
